Measured values: article PMC4561369
These are yes or no findings as the source states them, for the method shown. Binding seen in cells or lysates may run through a third protein. These calls come from enrichment with a bait or labelling near it, and not all partners need be listed.

Biological target: mutant p53 (mutp53) R172H protein of Trp53^R172H/R172H knock-in mice (mouse (endogenous in tissues of Trp53^R172H/R172H mice)) (UniProt P02340)
Test: affinity purification with mass spectrometry; lysates of thymic lymphomas of Trp53^R172H/R172H mice (n = 3); IP with anti-p53 (FL393) beads, eluted with 0.1 M glycine, bands of a 4–15% SDS gel analysed by LC-MS/MS; normal thymus as control

B1: Hadhb (protein, UniProt Q99JY0 35-475)
chain: SAPAVQTKSKKTLAKPNMKNIVVVEGVRIPFLLSGTSYKDLMPHDLARAALSGLLHRTNIPKDVVDYIIFGTVIQEVKTSNVAREAALGAGFSDKTPAHTVTMACISSNQAMTTAVGLIASGQCDVVVAGGVELMSDVPIRHSRNMRKMMLDLNKAKTLGQRLSLLSKFRLNFLSPELPAVAEFSTNETMGHSADRLAAAFAVSRMEQDEYALRSHSLAKKAQDEGHLSDIVPFKVPGKDTVTKDNGIRPSSLEQMAKLKPAFIKPYGTVTAANSSFLTDGASAMLIMSEDRALAMGYKPKAYLRDFIYVSQDPKDQLLLGPTYATPKVLEKAGLTMNDIDAFEFHEAFSGQILANFKAMDSDWFAQNYMGRKTKVGSPPLEKFNIWGGSLSLGHPFGATGCRLVMAAANRLRKDGGQYALVAACAAGGQGHAMIVEAYPK
binding: binds

B2: Phgdh (protein, UniProt Q61753 1-533)
chain: MAFANLRKVLISDSLDPCCRKILQDGGLQVVEKQNLSKEELIAELQDCEGLIVRSATKVTADVINAAEKLQVVGRAGTGVDNVDLEAATRKGILVMNTPNGNSLSAAELTCGMIMCLARQIPQATASMKDGKWDRKKFMGTELNGKTLGILGLGRIGREVATRMQSFGMKTVGYDPIISPEVAASFGVQQLPLEEIWPLCDFITVHTPLLPSTTGLLNDSTFAQCKKGVRVVNCARGGIVDEGALLRALQSGQCAGAALDVFTEEPPRDRALVDHENVISCPHLGASTKEAQSRCGEEIAVQFVDMVKGKSLTGVVNAQALTSAFSPHTKPWIGLAEAMGTLMHAWAGSPKGTIQVVTQGTSLKNAGTCLSPAVIVGLLREASKQADVNLVNAKLLVKEAGLNVTTSHNPGVPGEQGSGECLLTVALAGAPYQAVGLVQGTTPMLQMLNGAVFRPEVPLRRGQPLLVFRAQPSDPGMLPTMIGLLAEAGVQLLSYQTSMVSDGEPWHVMGLSSLLPSLETWKQHVLEAFQFCF
binding: binds

B3: Dars (protein, UniProt Q922B2 1-501)
chain: MPSTNASRKGQEKPREIVDAAEDYAKERYGISSMIQSQEKPDRVLVRVKDLTVQKADDVVWVRARVHTSRAKGKQCFLVLRQQQFNVQALVAVGDHASKQMVKFAANINKESIIDVEGVVRKVNQKIGSCTQQDVELHVQKIYVISLAEPRLPLQLDDAIRPEVEGEEDGRATVNQDTRLDNRVIDLRTSTSQAIFRLQSGICHLFRETLINKGFVEIQTPKIISAASEGGANVFTVSYFKNNAYLAQSPQLYKQMCICADFEKVFCIGPVFRAEDSNTHRHLTEFVGLDIEMAFNYHYHEVVEEIADTLVQIFKGLQERFQTEIQTVSKQFPCEPFKFLEPTLRLEYCEALAMLREAGVEMDDEEDLSTPNEKLLGRLVKEKYDTDFYVLDKYPLAVRPFYTMPDPRNPKQSNSYDMFMRGEEILSGAQRIHDPQLLTERALHHGIDLEKIKAYIDSFRFGAPPHAGGGIGLERVTMLFLGLHNVRQTSMFPRDPKRLTP
binding: binds

B4: Slc25a3 (protein, UniProt Q8VEM8 46-357)
chain: AVEEYSCEFGSMKYYALCGFGGVLSCGLTHTAVVPLDLVKCRMQVDPQKYKGIFNGFSITLKEDGVRGLAKGWAPTLIGYSMQGLCKFGFYEVFKALYSNILGEENTYLWRTSLYLASSASAEFFADIALAPMEAAKVRIQTQPGYANTLREAVPKMYKEEGLNAFYKGVAPLWMRQIPYTMMKFACFERTVEALYKFVVPKPRSECTKAEQLVVTFVAGYIAGVFCAIVSHPADSVVSVLNKEKGSTASQVLQRLGFRGVWKGLFARIIMIGTLTALQWFIYDSVKVYFRLPRPPPPEMPESLKKKLGLTE
binding: binds

B5: Rars (protein, UniProt Q9D0I9 1-660)
chain: MDGLVAQCSARLLQQEREIKALTAEIDRLKNCGCLEASPSLEQLREENLKLKYRLNILRRSLQEERRKPTKNMININSRLQEVFGCAIRAAYPDLENPPLIVTPSQQPKFGDYQCNSAMGISQMLKAKEQKVSPREIAENITKHLPNNKYIDKVEIAGPGFINVHLRKDFVSEQLTSLLVNGVQLPVLGDKEKVIVDFSSPNIAKEMHVGHLRSTIIGESMSRLFEFAGYDVLRLNHVGDWGTQFGMLIAHLQDKFPDYLTVSPPIGDLQAFYKESKKRFDADEEFKKRAYQCVVLLQSKNPDIMKAWNLICDVSREEFKKIYDALDITLIERGESFYQDRMKDIVKEFEDKGFVQVDDGRKIVFVPGCSVPLTIVKSDGGYTYDTSDLAAIKQRLFEEKANKIIYVVDNGQAIHFQTIFAAAQMIGWYDPKVTLVTHVGFGVVLGEDKKKFKTRSGETVRLMDLLEEGLKRSMDKLKEKERDKVLTEEELKAAQTSVAYGCIKYADLSHNRLNDYIFSFDKMLDDRGNTAAYLLYAFTRIRSIARLANIDEAMLQRAARETKIILDHEKEWKLGRCILRFPEILQKILDDLFLHTLCDYIYELATTFTEFYDSCYCVEKDRQTGKVLKVNMWRMLLCEAVAAVMAKGFDILGIKPVQRM
binding: binds

B6: Hyou1 (protein, UniProt Q9JKR6 33-999)
chain: LAVMSVDLGSESMKVAIVKPGVPMEIVLNKESRRKTPVTVTLKENERFLGDSAAGMAIKNPKATLRYFQHLLGKQADNPHVALYRSRFPEHELIVDPQRQTVRFQISPQLQFSPEEVLGMVLNYSRSLAEDFAEQPIKDAVITVPAFFNQAERRAVLQAARMAGLKVLQLINDNTATALSYGVFRRKDINSTAQNVMFYDMGSGSTVCTIVTYQTVKTKEAGMQPQLQIRGVGFDRTLGGLEMELRLREHLAKLFNEQRKGQKAKDVRENPRAMAKLLREANRLKTVLSANADHMAQIEGLMDDVDFKAKVTRVEFEELCADLFDRVPGPVQQALQSAEMSLDQIEQVILVGGATRVPKVQEVLLKAVGKEELGKNINADEAAAMGAVYQAAALSKAFKVKPFVVRDAVIYPILVEFTREVEEEPGLRSLKHNKRVLFSRMGPYPQRKVITFNRYSHDFNFHINYGDLGFLGPEDLRVFGSQNLTTVKLKGVGESFKKYPDYESKGIKAHFNLDESGVLSLDRVESVFETLVEDSPEEESTLTKLGNTISSLFGGGTSSDAKENGTDAVQEEEESPAEGSKDEPAEQGELKEEAEPPAEETSQPPPSEPKGDAAREGEKPDEKESGDKPEAQKPNEKGQAGPEGAAPAPEEDKKPKPARKQKMVEEIGVELAVLDLPDLPEDELARSVQKLEELTLRDLEKQEREKAANSLEAFIFETQDKLYQPEYQEVSTEEQREEISGKLSATSTWLEDEGFGATTVMLKDKLAELRKLCQGLFFRVEERRKWPERLSALDNLLNHSSIFLKGARLIPEMDQVFTEVEMTTLEKVINDTWAWKNATLAEQAKLPATEKPVLLSKDIEAKMMALDREVQYLLNKAKFTKPRPRPKDKNGTRAEPPLNASAGDQEEKVIPPAGQTEEAKPILEPDKEETGTEPADSEPLELGGPGAGPEQEEQSAGQKRPSKNDEL
binding: binds

B7: Copg (protein, UniProt Q9QZE5 1-874)
chain: MLKKFDKKDEESGGGSNPLQHLEKSAVLQEARVFNETPINPRKCAHILTKILYLINQGEHLGTTEATEAFFAMTKLFQSNDPTLRRMCYLTIKEMSCIAEDVIIVTSSLTKDMTGKEDNYRGPAVRALCQITDSTMLQAVERYMKQAIVDKVPSVSSSALVSSLHLLKCSFDVVKRWVNEAQEAASSDNIMVQYHALGLLYHVRKNDRLAVSKMISKFTRHGLKSPFAYCMMIRVASKQLEEEDGSRDSPLFDFIESCLRNKHEMVVYEAASAIVNLPGCSAKELAPAVSVLQLFCSSPKAALRYAAVRTLNKVAMKHPSAVTACNLDLENLVTDSNRSIATLAITTLLKTGSESSIDRLMKQISSFMSEISDEFKVVVVQAISALCQKYPRKHAVLMNFLFTMLREEGGFEYKRAIVDCIISIIEENSESKETGLSHLCEFIEDCEFTVLATRILHLLGQEGPKTNNPSKYIRFIYNRVVLEHEEVRAGAVSALAKFGAQNEEMLPSILVLLKRCVMDDDNEVRDRATFYLNVLEQKQKALNAGYILNGLTVSIPGLEKALQQYTLEPSEKPFDLKSVPLATTPMAEQRPESTATAAVKQPEKVAATRQEIFQEQLAAVPEFQGLGPLFKSSPEPVALTESETEYVIRCTKHTFSDHLVFQFDCTNTLNDQTLENVTVQMEPTEAYEVLSYVPARSLPYNQPGTCYTLVALPTEDPTAVACTFSCVMKFTVKDCDPNTGEIDEEGYEDEYVLEDLEVTVADHIQKVMKVNFEAAWDEVGDEFEKEETFTLSTIKTLEEAVGNIVKFLGMHPCERSDKVPENKNTHTLLLAGVFRGGHDILVRSRLLLLDTVTMQVTARSSEELPVDIILASVG
binding: binds

B8: Fcgr4 (protein, UniProt A0A0B4J1G0 21-249)
chain: GLQKAVVNLDPKWVRVLEEDSVTLRCQGTFSPEDNSIKWFHNESLIPHQDANYVIQSARVKDSGMYRCQTALSTISDPVQLEVHMGWLLLQTTKWLFQEGDPIHLRCHSWQNRPVRKVTYLQNGKGKKYFHENSELLIPKATHNDSGSYFCRGLIGHNNKSSASFRISLGDPGSPSMFPPWHQITFCLLIGLLFAIDTVLYFSVRRGLQSPVADYEEPKIQWSKEPQDK
binding: binds

B9: Pdia6 (protein, UniProt Q922R8 20-440)
chain: LYSSSDDVIELTPSNFNREVIQSDGLWLVEFYAPWCGHCQRLTPEWKKAATALKDVVKVGAVNADKHQSLGGQYGVQGFPTIKIFGANKNKPEDYQGGRTGEAIVDAALSALRQLVKDRLGGRSGGYSSGKQGRGDSSSKKDVVELTDDTFDKNVLDSEDVWMVEFYAPWCGHCKNLEPEWAAAATEVKEQTKGKVKLAAVDATVNQVLASRYGIKGFPTIKIFQKGESPVDYDGGRTRSDIVSRALDLFSDNAPPPELLEIINEDIAKKTCEEHQLCVVAVLPHILDTGAAGRNSYLEVLLKLADKYKKKMWGWLWTEAGAQYELENALGIGGFGYPAMAAINARKMKFALLKGSFSEQGINEFLRELSFGRGSTAPVGGGSFPTITPREPWDGKDGELPVEDDIDLSDVELDDLEKDEL
binding: binds

B10: Aldh2 (protein, UniProt P47738 20-519)
chain: SAAATSAVPAPNHQPEVFCNQIFINNEWHDAVSRKTFPTVNPSTGEVICQVAEGNKEDVDKAVKAARAAFQLGSPWRRMDASDRGRLLYRLADLIERDRTYLAALETLDNGKPYVISYLVDLDMVLKCLRYYAGWADKYHGKTIPIDGDFFSYTRHEPVGVCGQIIPWNFPLLMQAWKLGPALATGNVVVMKVAEQTPLTALYVANLIKEAGFPPGVVNIVPGFGPTAGAAIASHEGVDKVAFTGSTEVGHLIQVAAGSSNLKRVTLELGGKSPNIIMSDADMDWAVEQAHFALFFNQGQCCCAGSRTFVQENVYDEFVERSVARAKSRVVGNPFDSRTEQGPQVDETQFKKILGYIKSGQQEGAKLLCGGGAAADRGYFIQPTVFGDVKDGMTIAKEEIFGPVMQILKFKTIEEVVGRANDSKYGLAAAVFTKDLDKANYLSQALQAGTVWINCYDVFGAQSPFGGYKMSGSGRELGEYGLQAYTEVKTVTVKVPQKNS
binding: binds

B11: St13 (protein, UniProt Q99L47 1-371)
chain: MDPRKVSELRAFVKMCRQDPSVLHTEEMRFLREWVESMGGKVPPATHKAKSEENTKEEKRDKTTEENIKTEELSSEESDLEIDNEGVIEPDTDAPQEMGDENAEITEEMMDEANEKKGAAIEALNDGELQKAIDLFTDAIKLNPRLAILYAKRASVFVKLQKPNAAIRDCDRAIEINPDSAQPYKWRGKAHRLLGHWEEAAHDLALACKLDYDEDASAMLREVQPRAQKIAEHRRKYERKREEREIKERIERVKKAREEHERAQREEEARRQSGSQYGSFPGGFPGGMPGNFPGGMPGMGGAMPGMAGMAGMPGLNEILSDPEVLAAMQDPEVMVAFQDVAQNPSNMSKYQSNPKVMNLISKLSAKFGGQS
binding: binds
